Data source: PubChem BioAssay AID602196 (INSERM, 2012)

Test: 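Genes whose knock-down alters cisplatin killing of lung cancer cells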
Cell system: human A549 lung cancer cells
Reagent: siRNA pair against human genes
Time to read-out: 48 h transfection before cisplatin; time from cisplatin to read-out not stated
Challenge: cisplatin at a dose killing half of control-siRNA cells; exact dose and duration not given
Detection: 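Cisplatin cell death as a shift from the 50% death seen with control siRNA; siRNAs toxic or growth-blocking alone scored 0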
Direction: two-siRNA summed score (-2 to +2): higher = both siRNAs protect from cisplatin killing; -2 means both sensitise
Rule for the call: 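siRNAs harmful alone (LDH or WST-1) get 0; others get +1 for less and -1 for more cisplatin killing; genes are active when the two siRNAs give the same sign, summing to ±2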
Calls: active = both siRNAs shift cisplatin killing the same way; inactive = no consistent shift, or siRNA harmful alone
This is an unselected part of about 23,000 reagents. In the full data, 455 (2%) got an active call. 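Active includes both protection and sensitisation; some change values fall well beyond the stated -50 to +50 range.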 A number with no mark means an inactive call. Further read-outs or replicates are left out here. Not given: the amount of reagent.

RTF1 (RTF1 homolog, Paf1/RNA polymerase II complex component) [SID131520208]
- two-siRNA summed score (-2 to +2): 1

DCAF13 (DDB1 and CUL4 associated factor 13) [SID131505655]
- two-siRNA summed score (-2 to +2): 0

LOC144678 [SID131509392]
- two-siRNA summed score (-2 to +2): 0

MTIF3 (mitochondrial translational initiation factor 3) [SID131508957]
- two-siRNA summed score (-2 to +2): 0

UCKL1 (uridine-cytidine kinase 1 like 1) [SID131508584]
- two-siRNA summed score (-2 to +2): 0

KDSR (3-ketodihydrosphingosine reductase) [SID131505122]
- two-siRNA summed score (-2 to +2): 0

SLC35E1 [SID131516440]
- two-siRNA summed score (-2 to +2): 0

RPUSD4 (RNA pseudouridine synthase D4) [SID131507840]
- two-siRNA summed score (-2 to +2): 0

FLYWCH1L (retired record) [SID131502084]
- two-siRNA summed score (-2 to +2): -1

MAPK8IP3 (mitogen-activated protein kinase 8 interacting protein 3) [SID131505689]
- two-siRNA summed score (-2 to +2): 0

ETV4 (ETS variant transcription factor 4) [SID131510745]
- two-siRNA summed score (-2 to +2): 0

SLC22A15 [SID131513819]
- two-siRNA summed score (-2 to +2): 0

ZNF79 (zinc finger protein 79) [SID131504752]
- two-siRNA summed score (-2 to +2): 0

CRISP2 (cysteine rich secretory protein 2) [SID131509440]
- two-siRNA summed score (-2 to +2): 0

FLJ37078 [SID131512069]
- two-siRNA summed score (-2 to +2): 0

TUBD1 (tubulin delta 1) [SID131504612]
- two-siRNA summed score (-2 to +2): 0

DNMT3L (DNA methyltransferase 3 like) [SID131500891]
- two-siRNA summed score (-2 to +2): -1

HAUS3 (HAUS augmin like complex subunit 3) [SID131515843]
- two-siRNA summed score (-2 to +2): 0

LOC388587 [SID131506221]
- two-siRNA summed score (-2 to +2): 0

FOXRED2 (FAD dependent oxidoreductase domain containing 2) [SID131520174]
- two-siRNA summed score (-2 to +2): 1

GCN1 (GCN1 activator of EIF2AK4) [SID131519525]
- two-siRNA summed score (-2 to +2): 1

Entries listed so far whose target name starts with L or l (2):
LOC144678 [SID131509392]
- two-siRNA summed score (-2 to +2): 0

LOC388587 [SID131506221]
- two-siRNA summed score (-2 to +2): 0
